Results: article PMC4986900

Protein sequences, listed by entry. Tags and fused reporters are not part of them.
UniProt Q15024: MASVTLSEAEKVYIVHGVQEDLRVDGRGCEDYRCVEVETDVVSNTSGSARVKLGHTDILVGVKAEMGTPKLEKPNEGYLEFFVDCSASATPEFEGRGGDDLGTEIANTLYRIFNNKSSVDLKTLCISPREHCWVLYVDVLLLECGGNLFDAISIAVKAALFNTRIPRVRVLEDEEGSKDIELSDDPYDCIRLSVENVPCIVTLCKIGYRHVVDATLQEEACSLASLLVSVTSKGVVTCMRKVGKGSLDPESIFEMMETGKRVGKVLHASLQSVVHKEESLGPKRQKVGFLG
UniProt Q13868: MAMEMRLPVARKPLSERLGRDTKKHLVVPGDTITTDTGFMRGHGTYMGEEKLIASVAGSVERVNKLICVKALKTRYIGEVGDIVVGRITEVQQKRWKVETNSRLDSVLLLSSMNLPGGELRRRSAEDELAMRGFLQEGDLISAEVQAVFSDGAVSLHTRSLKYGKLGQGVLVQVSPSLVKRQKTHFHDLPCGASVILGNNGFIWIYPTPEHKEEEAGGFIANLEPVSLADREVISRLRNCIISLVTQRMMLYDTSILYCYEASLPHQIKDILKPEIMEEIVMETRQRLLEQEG
UniProt Q06265: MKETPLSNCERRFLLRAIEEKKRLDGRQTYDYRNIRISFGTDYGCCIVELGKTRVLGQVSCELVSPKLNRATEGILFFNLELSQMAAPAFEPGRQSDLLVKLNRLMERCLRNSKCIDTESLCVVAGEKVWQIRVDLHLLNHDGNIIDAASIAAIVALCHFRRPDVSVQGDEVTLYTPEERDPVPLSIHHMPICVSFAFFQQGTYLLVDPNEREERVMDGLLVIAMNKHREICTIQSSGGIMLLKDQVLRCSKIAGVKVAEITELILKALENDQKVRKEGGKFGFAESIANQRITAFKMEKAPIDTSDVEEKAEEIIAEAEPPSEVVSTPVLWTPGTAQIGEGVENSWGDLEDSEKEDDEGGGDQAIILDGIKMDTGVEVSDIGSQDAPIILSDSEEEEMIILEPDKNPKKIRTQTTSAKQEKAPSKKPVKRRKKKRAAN
UniProt Q9Y3B2: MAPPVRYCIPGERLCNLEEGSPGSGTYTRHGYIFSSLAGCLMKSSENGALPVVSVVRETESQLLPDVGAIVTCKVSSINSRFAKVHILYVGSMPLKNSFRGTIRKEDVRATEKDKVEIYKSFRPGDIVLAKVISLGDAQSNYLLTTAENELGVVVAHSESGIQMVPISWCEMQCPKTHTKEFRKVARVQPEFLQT
UniProt Q9NQT4: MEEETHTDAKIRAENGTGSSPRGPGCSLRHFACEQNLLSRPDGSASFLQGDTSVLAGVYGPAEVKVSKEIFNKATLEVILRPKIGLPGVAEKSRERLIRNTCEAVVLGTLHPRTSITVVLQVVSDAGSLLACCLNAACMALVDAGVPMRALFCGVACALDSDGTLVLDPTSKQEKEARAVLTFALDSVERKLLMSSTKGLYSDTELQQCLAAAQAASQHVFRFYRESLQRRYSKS
UniProt Q9NQT5: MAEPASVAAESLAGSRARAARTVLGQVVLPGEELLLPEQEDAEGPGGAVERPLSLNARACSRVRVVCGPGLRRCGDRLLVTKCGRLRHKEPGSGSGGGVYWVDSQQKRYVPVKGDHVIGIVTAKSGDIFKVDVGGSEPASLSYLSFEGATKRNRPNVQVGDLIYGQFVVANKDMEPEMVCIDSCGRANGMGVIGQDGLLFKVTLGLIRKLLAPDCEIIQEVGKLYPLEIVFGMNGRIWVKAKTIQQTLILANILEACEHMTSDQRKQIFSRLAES
UniProt Q5RKV6: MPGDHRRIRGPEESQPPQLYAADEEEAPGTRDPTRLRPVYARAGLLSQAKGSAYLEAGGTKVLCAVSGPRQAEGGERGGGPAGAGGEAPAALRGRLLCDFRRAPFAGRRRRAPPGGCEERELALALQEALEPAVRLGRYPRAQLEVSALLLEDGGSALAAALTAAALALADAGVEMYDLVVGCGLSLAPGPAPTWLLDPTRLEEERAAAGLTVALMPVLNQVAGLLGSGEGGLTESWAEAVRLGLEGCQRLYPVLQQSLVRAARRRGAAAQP

Experiments:
[1] = target: T1, 3xFlag-tagged EXOSC10 (human RRP6) (human) (UniProt Q01780); assay: affinity purification with mass spectrometry; ExoII: EXOSC10-3xFlag captured on anti-Flag magnetic beads from cryomilled HEK-293 cell powder extracted in 20 mM HEPES-Na pH 7.4, 100 mM NaCl, 5 mM CHAPS; native elution with 3xFlag peptide; eluate crosslinked with DTSSP before the glycerol gradient at 4°C (without DTSSP DIS3 dissociated during centrifugation); SDS-PAGE and MS of peak fractions
T1 sequence: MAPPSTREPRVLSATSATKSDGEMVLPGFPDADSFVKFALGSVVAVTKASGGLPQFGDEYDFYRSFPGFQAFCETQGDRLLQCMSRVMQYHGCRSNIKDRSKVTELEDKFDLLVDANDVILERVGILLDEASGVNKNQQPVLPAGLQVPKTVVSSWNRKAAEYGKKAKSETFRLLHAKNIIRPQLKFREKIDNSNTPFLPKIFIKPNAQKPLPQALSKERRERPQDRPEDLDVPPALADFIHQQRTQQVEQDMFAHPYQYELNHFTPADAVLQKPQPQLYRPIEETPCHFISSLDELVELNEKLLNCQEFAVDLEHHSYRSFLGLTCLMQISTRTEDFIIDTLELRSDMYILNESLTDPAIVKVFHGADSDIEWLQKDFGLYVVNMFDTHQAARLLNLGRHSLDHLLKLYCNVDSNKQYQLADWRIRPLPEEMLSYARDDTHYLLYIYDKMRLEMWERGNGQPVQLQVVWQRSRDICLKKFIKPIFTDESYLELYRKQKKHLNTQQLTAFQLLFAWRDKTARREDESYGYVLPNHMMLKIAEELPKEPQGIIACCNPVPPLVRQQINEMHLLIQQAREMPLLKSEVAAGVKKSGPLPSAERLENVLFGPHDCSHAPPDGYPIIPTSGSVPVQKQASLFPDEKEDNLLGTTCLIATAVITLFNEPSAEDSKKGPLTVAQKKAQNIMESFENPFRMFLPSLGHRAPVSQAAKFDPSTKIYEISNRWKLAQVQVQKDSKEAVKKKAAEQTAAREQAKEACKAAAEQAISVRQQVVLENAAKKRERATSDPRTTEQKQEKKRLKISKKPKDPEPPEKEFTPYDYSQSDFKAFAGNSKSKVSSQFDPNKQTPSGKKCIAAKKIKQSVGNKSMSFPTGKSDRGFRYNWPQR

[2] = target: T1, 3xFlag-tagged EXOSC10 (human RRP6) (human); assay: affinity purification with mass spectrometry; ExoI: EXOSC10-3xFlag captured on anti-Flag magnetic beads from cryomilled HEK-293 cell powder extracted in 20 mM HEPES-Na pH 7.4, 300 mM NaCl, 1% v/v Triton X-100; native elution with 3xFlag peptide; 10%-40% glycerol gradient at 4°C; SDS-PAGE and MS of peak fractions
[3] = target: T2, 3xFlag-tagged EXOSC10 (human RRP6) (human), Q01780; assay: affinity purification with mass spectrometry; ExoII: EXOSC10-3xFlag captured on anti-Flag magnetic beads from cryomilled HEK-293 cell powder extracted in 20 mM HEPES-Na pH 7.4, 100 mM NaCl, 5 mM CHAPS; native elution with 3xFlag peptide; eluate crosslinked with DTSSP before the glycerol gradient at 4°C (without DTSSP DIS3 dissociated during centrifugation); SDS-PAGE and MS of peak fractions; details: remark: other sources report otherwise
T2 chain: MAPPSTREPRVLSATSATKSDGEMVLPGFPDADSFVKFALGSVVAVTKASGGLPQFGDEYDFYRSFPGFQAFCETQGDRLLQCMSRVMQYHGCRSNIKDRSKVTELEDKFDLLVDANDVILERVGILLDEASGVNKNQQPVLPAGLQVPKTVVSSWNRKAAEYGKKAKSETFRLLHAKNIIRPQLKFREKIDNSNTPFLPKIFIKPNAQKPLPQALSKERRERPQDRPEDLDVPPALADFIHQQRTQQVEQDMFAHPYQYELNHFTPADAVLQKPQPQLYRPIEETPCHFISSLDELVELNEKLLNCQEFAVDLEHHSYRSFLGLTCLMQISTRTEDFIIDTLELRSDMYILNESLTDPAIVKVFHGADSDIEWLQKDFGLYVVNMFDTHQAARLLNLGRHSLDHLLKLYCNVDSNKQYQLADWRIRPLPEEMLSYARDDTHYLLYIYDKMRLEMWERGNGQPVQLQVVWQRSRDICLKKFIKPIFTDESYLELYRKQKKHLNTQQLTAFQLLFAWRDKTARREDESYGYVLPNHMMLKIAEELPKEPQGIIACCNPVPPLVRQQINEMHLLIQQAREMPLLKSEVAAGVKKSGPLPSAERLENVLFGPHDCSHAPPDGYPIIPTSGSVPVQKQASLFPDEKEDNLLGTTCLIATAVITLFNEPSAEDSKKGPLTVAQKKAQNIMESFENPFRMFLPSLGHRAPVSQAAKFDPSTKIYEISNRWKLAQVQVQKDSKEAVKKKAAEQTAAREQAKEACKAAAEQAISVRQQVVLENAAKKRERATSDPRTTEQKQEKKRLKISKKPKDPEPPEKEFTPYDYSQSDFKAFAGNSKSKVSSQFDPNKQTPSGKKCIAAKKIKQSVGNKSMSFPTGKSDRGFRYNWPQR

[4] = target: T1, 3xFlag-tagged EXOSC10 (human RRP6) (human); assay: condition: only extraction in 300 mM NaCl, 1% v/v Triton X-100 (ExoI); affinity purification with mass spectrometry; ExoI: EXOSC10-3xFlag captured on anti-Flag magnetic beads from cryomilled HEK-293 cell powder extracted in 20 mM HEPES-Na pH 7.4, 300 mM NaCl, 1% v/v Triton X-100; native elution with 3xFlag peptide; 10%-40% glycerol gradient at 4°C; SDS-PAGE and MS of peak fractions

Row | Molecule | binding [1] | binding [2] | binding [3] | binding [4]
1 | EXOSC7 (from UniProt Q15024 1-291) | binds | binds | – | –
2 | EXOSC2 (from UniProt Q13868 1-293) | binds | binds | – | –
3 | EXOSC9 (from UniProt Q06265 1-439) | binds | binds | – | –
4 | EXOSC1 (from UniProt Q9Y3B2 1-195) | binds | binds | – | –
5 | EXOSC5 (from UniProt Q9NQT4 1-235) | binds | binds | – | –
6 | EXOSC3 (from UniProt Q9NQT5 1-275) | binds | binds | – | –
7 | EXOSC6 (from UniProt Q5RKV6 1-272) | binds | binds | – | –
8 | MPHOSPH6 (protein, UniProt Q99547 1-160) MAAERKTRLSKNLLRMKFMQRGLDSETKKQLEEEEKKIISEEHWYLDLPELKEKESFIIEEQSFLLCEDLLYGRMSFRGFNPEVEKLMLQMNAKHKAEEVEDETVELDVSDEEMARRYETLVGTIGKKFARKRDHANYEEDENGDITPIKAKKMFLKPQD | binds | binds | – | –
9 | C1D (protein, UniProt Q13901 1-141) MAGEEINEDYPVEIHEYLSAFENSIGAVDEMLKTMMSVSRNELLQKLDPLEQAKVDLVSAYTLNSMFWVYLATQGVNPKEHPVKQELERIRVYMNRVKEITDKKKAGKLDRGAASRFVKNALWEPKSKNASKVANKGKSKS | binds | binds | – | –
10 | DIS3, Q9Y2L1 1-958 (enzyme) MLKSKTFLKKTRAGGVMKIVREHYLRDDIGCGAPGCAACGGAHEGPALEPQPQDPASSVCPQPHYLLPDTNVLLHQIDVLEDPAIRNVIVLQTVLQEVRNRSAPVYKRIRDVTNNQEKHFYTFTNEHHRETYVEQEQGENANDRNDRAIRVAAKWYNEHLKKMSADNQLQVIFITNDRRNKEKAIEEGIPAFTCEEYVKSLTANPELIDRLACLSEEGNEIESGKIIFSEHLPLSKLQQGIKSGTYLQGTFRASRENYLEATVWIHGDNEENKEIILQGLKHLNRAVHEDIVAVELLPKSQWVAPSSVVLHDEGQNEEDVEKEEETERMLKTAVSEKMLKPTGRVVGIIKRNWRPYCGMLSKSDIKESRRHLFTPADKRIPRIRIETRQASTLEGRRIIVAIDGWPRNSRYPNGHFVRNLGDVGEKETETEVLLLEHDVPHQPFSQAVLSFLPKMPWSITEKDMKNREDLRHLCICSVDPPGCTDIDDALHCRELENGNLEVGVHIADVSHFIRPGNALDQESARRGTTVYLCEKRIDMVPELLSSNLCSLKCDVDRLAFSCIWEMNHNAEILKTKFTKSVINSKASLTYAEAQLRIDSANMNDDITTSLRGLNKLAKILKKRRIEKGALTLSSPEVRFHMDSETHDPIDLQTKELRETNSMVEEFMLLANISVAKKIHEEFSEHALLRKHPAPPPSNYEILVKAARSRNLEIKTDTAKSLAESLDQAESPTFPYLNTLLRILATRCMMQAVYFCSGMDNDFHHYGLASPIYTHFTSPIRRYADVIVHRLLAVAIGADCTYPELTDKHKLADICKNLNFRHKMAQYAQRASVAFHTQLFFKSKGIVSEEAYILFVRKNAIVVLIPKYGLEGTVFFEEKDKPNPQLIYDDEIPSLKIEDTVFHVFDKVKVKIMLDSSNLQHQKIRMSLVEPQIPGISIPTDTSNMDLNGPKKKKMKLGK | – | – | binds | –
11 | DIS3 (enzyme, UniProt Q9Y2L1 1-958) MLKSKTFLKKTRAGGVMKIVREHYLRDDIGCGAPGCAACGGAHEGPALEPQPQDPASSVCPQPHYLLPDTNVLLHQIDVLEDPAIRNVIVLQTVLQEVRNRSAPVYKRIRDVTNNQEKHFYTFTNEHHRETYVEQEQGENANDRNDRAIRVAAKWYNEHLKKMSADNQLQVIFITNDRRNKEKAIEEGIPAFTCEEYVKSLTANPELIDRLACLSEEGNEIESGKIIFSEHLPLSKLQQGIKSGTYLQGTFRASRENYLEATVWIHGDNEENKEIILQGLKHLNRAVHEDIVAVELLPKSQWVAPSSVVLHDEGQNEEDVEKEEETERMLKTAVSEKMLKPTGRVVGIIKRNWRPYCGMLSKSDIKESRRHLFTPADKRIPRIRIETRQASTLEGRRIIVAIDGWPRNSRYPNGHFVRNLGDVGEKETETEVLLLEHDVPHQPFSQAVLSFLPKMPWSITEKDMKNREDLRHLCICSVDPPGCTDIDDALHCRELENGNLEVGVHIADVSHFIRPGNALDQESARRGTTVYLCEKRIDMVPELLSSNLCSLKCDVDRLAFSCIWEMNHNAEILKTKFTKSVINSKASLTYAEAQLRIDSANMNDDITTSLRGLNKLAKILKKRRIEKGALTLSSPEVRFHMDSETHDPIDLQTKELRETNSMVEEFMLLANISVAKKIHEEFSEHALLRKHPAPPPSNYEILVKAARSRNLEIKTDTAKSLAESLDQAESPTFPYLNTLLRILATRCMMQAVYFCSGMDNDFHHYGLASPIYTHFTSPIRRYADVIVHRLLAVAIGADCTYPELTDKHKLADICKNLNFRHKMAQYAQRASVAFHTQLFFKSKGIVSEEAYILFVRKNAIVVLIPKYGLEGTVFFEEKDKPNPQLIYDDEIPSLKIEDTVFHVFDKVKVKIMLDSSNLQHQKIRMSLVEPQIPGISIPTDTSNMDLNGPKKKKMKLGK | – | – | – | no binding

These are yes or no findings as the source states them, for the method shown. Binding seen in cells or lysates may run through a third protein. Here binding means that the protein was enriched with, or labelled near, the bait; the list need not be complete. For some assays here: No binding means not detected with the bait. Where a sequence is shown, tags or fusion partners need not be part of it.
